Measurements reported in PubChem BioAssay AID1259354 (Paczesny and Yang Labs, IUPUI and University of Michigan, 2018).
About 1,800 (2.3%) of roughly 78,000 compounds were called active. The inconclusive results got no clear call from the source; some entries with a clear call stand among them for comparison. Rule as the data show it: active = inhibition above about 30%; inconclusive = mostly about 10% to 28%; inactive = weaker than that.

Sequences of proteins named here, by UniProt entry; tags and fusion partners are left off. A change or cut given only in a name is not applied to a line headed by its entry.
UniProt Q01638: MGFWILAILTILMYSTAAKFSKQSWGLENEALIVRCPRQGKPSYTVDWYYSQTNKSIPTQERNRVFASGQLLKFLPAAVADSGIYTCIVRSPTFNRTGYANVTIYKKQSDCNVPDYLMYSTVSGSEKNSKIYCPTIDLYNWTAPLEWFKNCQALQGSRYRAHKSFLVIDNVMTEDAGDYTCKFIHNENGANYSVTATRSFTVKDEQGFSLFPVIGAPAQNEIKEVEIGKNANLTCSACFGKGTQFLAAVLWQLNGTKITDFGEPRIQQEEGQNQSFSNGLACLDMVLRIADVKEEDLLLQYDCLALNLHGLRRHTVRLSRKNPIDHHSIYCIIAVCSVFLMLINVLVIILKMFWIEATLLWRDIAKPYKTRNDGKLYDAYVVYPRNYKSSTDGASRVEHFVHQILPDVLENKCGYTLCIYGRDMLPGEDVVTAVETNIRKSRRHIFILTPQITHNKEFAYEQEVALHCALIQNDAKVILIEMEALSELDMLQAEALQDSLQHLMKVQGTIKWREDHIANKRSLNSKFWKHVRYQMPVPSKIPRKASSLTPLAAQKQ

What follows are compounds tested against Interleukin-1 receptor-like 1 (Homo sapiens) (UniProt Q01638) (assay: blocks human ST2 binding to IL-33, primary screen, biochemical, AlphaLISA (AID 1259354)). Conditions: AlphaLISA ST2-Fc/biotin-IL-33 interaction, 1 h; at 17 µM, active compounds read high.

Structure (SMILES) | inhibition
O=C1CCc2nc3sc4c(c3c(=O)n2N1)CCCC4 | inactive
Cn1nc(-c2ccc(Cl)cc2)c2cc(C(=O)NCc3ccco3)sc21 | inconclusive: 23%
O=C1N=c2ccc(F)cc2=C1c1sc(Nc2ccc(F)cc2)nc1O | active: 48%
CCOc1ccccc1-c1c(C#N)c(N)nc(OC)c1C#N | inactive
CSc1ccccc1C(=O)Nc1ccc2c(c1)OC1(CCCCC1)O2 | inconclusive: 16%
Cc1ncc2c(c1CNC(=O)Cc1cccs1)CCN(C(=O)CCc1ccccc1Cl)C2 | inconclusive: 15%
COc1ccc(/C=C2\N=C(c3cccc(I)c3)OC2=O)cc1 | active: 31%
CC1=CC[C@@H]2CN(C(=O)CCS(=O)(=O)c3ccccc3)C[C@@H]2C1 | inconclusive: 11%
COc1ccc(N2C(=O)CN(C(=O)c3cccc(Cn4nc(C)cc4C)c3)CC23CCCC3)cc1 | inactive
CCOc1cc(C(=O)N(c2cc(C)cc(C)c2)C2C=CS(=O)(=O)C2)cc(OCC)c1OCC (stereo not given) | inconclusive: 12%
O=C1CC(c2cnn3cccnc23)c2cnn(Cc3cccnc3)c2N1 (stereo not given) | inactive
COc1ccc(C2C(C#N)=C(N)Oc3n[nH]c(C)c32)cc1COc1ccc(F)cc1 (stereo not given) | inconclusive: 10%
COc1ccc(OC)c(-c2cc(Cl)c3c(c2)CC(CNC(=O)CCn2cncn2)O3)c1 (stereo not given) | inactive
CCOc1ccc2cc(C3CC(c4ccc(C)cc4)=NN3C(=O)CCC(=O)O)c(=O)[nH]c2c1 (stereo not given) | inconclusive: 12%
COc1cccc(C2Oc3ccccc3C3CC(c4cccs4)=NN32)c1O (stereo not given) | inconclusive: 27%
Cc1cccc(-c2cc(N3CCN(S(=O)(=O)c4ccccc4)CC3)ncn2)c1 | inactive
CN(C)c1ncc(-c2nccn2CCc2cn[nH]c2)cn1 | inconclusive: 21%
COCCCNC(=O)CCS(=O)(=O)c1cc(Br)cc2c1N(C(C)=O)CC2 | inactive
COc1ccc(C(=O)Nc2ncc(S(=O)(=O)c3ccc([N+](=O)[O-])cc3)s2)cc1OC | inactive
O=C(Nc1cccc([N+](=O)[O-])c1)C(Cc1ccccc1)N1C(=O)C2C3CCC(C3)C2C1=O (stereo not given) | inconclusive: 11%

Structure (SMILES) | inhibition
O=C(NCc1ccc2c(c1)OCO2)c1ccccc1C(=O)NCc1ccc2c(c1)OCO2 | inactive
Cc1cc(C(F)(F)F)c(C#N)c(SCC(=O)Nc2ccccc2)n1 | inconclusive: 10%
CCS(=O)(=O)N1CCCC(C(=O)NCCC(C)C)C1 (stereo not given) | inconclusive: 18%
O=C(CSc1c2c(nc3ccccc13)CCC2)Nc1ccc(F)cc1 | inconclusive: 11%
CC1CCCCN1C(=O)c1cc2c(=O)n3ccccc3nc2n1C (stereo not given) | inactive
CN1CCCN(Cc2ccc(Br)s2)CC1 | inconclusive: 19%
O=C(COc1ccccc1)Nc1ccc2n(c1=O)C[C@H]1C[C@@H]2CN(C(=O)NC2CCCCC2)C1 | inconclusive: 13%
NC1(C(=O)O)CCN(Cc2ccccc2-c2ccco2)C1 (stereo not given) | inconclusive: 13%
Cc1ccc(Cn2c(CNC(=O)CCc3ccccc3)nc3cccnc32)cc1 | inconclusive: 15%
Cc1nn(-c2ccccc2)c2c1C(c1cccc(O)c1)C(C#N)=C(N)O2 (stereo not given) | inconclusive: 15%
Cc1cccc(N2C(=O)c3ccc(-c4nnc(-c5ccccc5)o4)cc3C2=O)c1 | inactive
CCOc1ccc(S(=O)(=O)N2C(C)CCCC2C)cc1 (stereo not given) | inactive
Nc1nc(-c2ccc(Cl)c([N+](=O)[O-])c2)nc2c1c(=O)oc1ccccc12 | inconclusive: 14%
CN(Cc1ccco1)C(=O)c1c[nH]c2ccc(S(=O)(=O)Nc3ccccc3F)cc2c1=O | inactive
O=C(C1CCC(=O)N(C2CCCC2)C1)N1CCCCCCC1 (stereo not given) | inconclusive: 11%
CCc1ccc(-c2nc(CSCC(=O)NC3CCCCCC3)c(C)o2)cc1 | inconclusive: 12%
COc1cc2c(cc1OC)CN(CCC(=O)O)CC2 | inactive
Oc1ccccc1-c1nc2cnccn2c1Nc1ccc2c(c1)OCCO2 | inconclusive: 11%
CN(C)S(=O)(=O)c1ccc(C(=O)NCCSc2c[nH]c3ccccc23)cc1 | inconclusive: 10%
O=C(c1cccc(Br)c1)n1cnc2ccccc21 | inconclusive: 24%

Given with tabs: part of the list above.
Structure (SMILES)	inhibition
CSc1ccccc1C(=O)Nc1ccc2c(c1)OC1(CCCCC1)O2	inconclusive: 16%
Cc1ncc2c(c1CNC(=O)Cc1cccs1)CCN(C(=O)CCc1ccccc1Cl)C2	inconclusive: 15%
COc1ccc(/C=C2\N=C(c3cccc(I)c3)OC2=O)cc1	active: 31%
CC1=CC[C@@H]2CN(C(=O)CCS(=O)(=O)c3ccccc3)C[C@@H]2C1	inconclusive: 11%

Remaining list, next part.

Structure (SMILES) | inhibition
COc1cccc(N2CCC(N3CCCC(N4CCN(c5ccccc5C)CC4)C3)CC2)c1 (stereo not given) | inactive
CS(=O)(=O)c1ccc(C(=O)NCc2cnn3ccccc23)cc1 | inconclusive: 12%
COc1ccc(-c2cc(=O)n(CCC#N)[nH]2)cc1 | inconclusive: 12%
CCCN1CC=C2C(C#N)=C(N)C(C#N)(C#N)C(c3ccccc3Cl)C2C1 (stereo not given) | inconclusive: 17%
Cc1noc(C)c1NC(=O)N1CCC(Cn2cc(C3CC3)nn2)CC1 | inconclusive: 12%
Cc1nsc(NC(=O)N2CCOc3ccc(Cl)cc3C2)n1 | inconclusive: 16%
CCCn1c(NCc2c(O)ccc3ccccc23)nc2ccccc21 | inconclusive: 19%
COc1cc(C(=O)N2CCC(C(=O)Nc3cccc(C)c3C)CC2)cc(OC)c1OC | inactive
CC(C)c1nnsc1CNC(=O)C(C)(C)NC(=O)c1cccs1 | inactive
O=C(Nc1ccccc1)N1CCN(c2ccc([N+](=O)[O-])cc2)CC1 | inconclusive: 13%
O=C(Nc1ccc2c(c1)CCC2=O)c1ccc(CN2CCCC(O)C2)cc1 (stereo not given) | inactive
COc1cccc(OC)c1OCC(O)CN1CCCCC1 (stereo not given) | inactive
COCCn1cc(C(=O)NC2CCCCCC2)c2c3ccccc3n(C)c2c1=O | inconclusive: 18%
COc1ccc(-c2noc([C@@H]3C[C@@H](O)CN3C3CCOCC3)n2)cc1 | inconclusive: 13%
Cc1c(C(=O)O)sc2ncnc(N(C)CCN3CCCCC3=O)c12 | inconclusive: 11%
Cc1cccc(-c2cnc(-c3ccncc3)nc2C2CCN(C(=O)c3ccoc3)CC2)c1 | inconclusive: 11%
COc1ccc(-c2ccc3c(c2)C(=O)N2CC[C@H](NC(=O)c4cccc(F)c4)[C@H]2C(=O)N3)cc1 | inactive
Cc1ccc(OCc2cc(=O)n3oc(C)cc3n2)c(NC(=O)C2CCCCC2)c1 | inactive
CCOc1ccc(C(=O)NCc2csc(C)n2)o1 | inconclusive: 15%
CCc1ccc2nc(N3CCC(C(=O)NCCN(CC)CC)CC3)sc2c1 | inconclusive: 12%
